{"sequences": {"note": "The chains behind the UniProt entries cited, without tags or fusion partners. Where a name states a change or a piece, a line headed by the entry shows the natural chain unless it says otherwise.", "UniProt P08887": "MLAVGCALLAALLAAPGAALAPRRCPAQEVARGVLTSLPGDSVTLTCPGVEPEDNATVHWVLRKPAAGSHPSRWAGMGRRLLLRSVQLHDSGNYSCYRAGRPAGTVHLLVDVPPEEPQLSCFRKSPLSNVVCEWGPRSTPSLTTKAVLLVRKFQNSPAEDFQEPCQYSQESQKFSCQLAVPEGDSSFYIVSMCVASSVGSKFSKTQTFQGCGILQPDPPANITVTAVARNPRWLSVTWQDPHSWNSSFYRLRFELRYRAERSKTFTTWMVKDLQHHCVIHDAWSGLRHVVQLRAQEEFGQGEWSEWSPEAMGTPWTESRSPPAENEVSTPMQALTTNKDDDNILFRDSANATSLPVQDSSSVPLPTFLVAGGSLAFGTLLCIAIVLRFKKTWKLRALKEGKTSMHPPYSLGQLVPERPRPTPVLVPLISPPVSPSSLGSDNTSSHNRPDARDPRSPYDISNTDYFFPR"}, "source": "patent US20150284465A1", "binders": {"B1": {"name": "RDC-23 (antibody, V domains shown)", "VH": "QVQLQESGPGLVRPSQTLSLTCTVSGYSITSDHAWSWVRQPPGRGLEWIGYISYSGITTYNPSLKSRVTMLRDTSKNQFSLRLSSVTAADTAVYYCARVLARITAMDYWGQGSLVTVSS", "VL": "DIQMTQSPSSLSASVGDRVTITCRASQDISSYLNWYQQKPGKAPKLLIYYTSRLHSGVPSRFSGSGSGTDFTFTISSLQPEDIATYYCGQGNRLPYTFGQGTKVEIK"}, "B2": {"name": "PF1 antibody (antibody, IgG1, V domains shown)", "VH": "QVQLQESGPGLVKPSETLSLTCAVSGYSISDDHAWSWVRQPPGEGLEWIGYISYSGITNYNPSLKGRVTISRDTSKNQFSLKLSSVTAADTAAYYCARVLARITAMDYWGEGTLVTVSS", "VL": "DIQMTQSPSSLSASVGDSVTITCQASQDISSYLNWYQQKPGKAPELLIYYGSELHSGVPSRFSGSGSGTDFTFTISSLEAEDAATYYCGQGNRLPYTFGQGTKVEIE"}, "B3": {"name": "6R_a_H1L1 (antibody, human IgG1, kappa, V domains shown)", "VH": "QVQLQESGPGLVRPSQTLSLTCTVSGYSITSDHAWSWVRQPPGRGLEWIGYISYSGITTYNPSLKSRVTMLRDTSKNQFSLRLSSVTAADTAVYYCARVLARITAMDYWGQGSLVTVSS", "VL": "DIQMTQSPSSLSASVGDRVTITCRASQDISSYLNWYQQKPGKAPKLLIYYTSRLHSGVPSRFSGSGSGTDFTFTISSLQPEDIATYYCGQGNRLPYTFGQGTKVEIKR"}, "B4": {"name": "6R_a_H2L2 (antibody, human IgG1, kappa, V domains shown)", "VH": "QVQLQESGPGLVKPSETLSLTCAVSGYSISDDHAWSWVRQPPGEGLEWIGYISYSGITNYNPSLKGRVTISRDTSKNQFSLKLSSVTAADTAAYYCARVLARITAMDYWGEGTLVTVSS", "VL": "DIQMTQSPSSLSASVGDSVTITCQASQDISSYLNWYQQKPGKAPELLIYYGSELHSGVPSRFSGSGSGTDFTFTISSLEAEDAATYYCGQGNRLPYTFGQGTKVEIER"}, "B5": {"name": "6R_a_H3L3 (antibody, human IgG1, kappa, V domains shown)", "VH": "QVQLQESGPGLVKPSETLSLTCAVSGYSISDDHAWSWVRQPPGEGLEWIGYISYSGITNYNPSLQDRVTISRDNSKNTLYLQMNSLRAEDTAVYYCARLLARATAMDYWGQGILVTVSS", "VL": "DIQMTQSPSSLSASVGDSVTITCQASEDISSYLNWYQQKPGKAPELLIYYGSELESGVPSRFSGSGSGTDFTFTISSLEAEDAATYYCGQGNRLPYTFGQGTKVEIER"}, "B6": {"name": "H96/PF1L-IgG1 (antibody, V domains shown)", "VH": "QVQLQESGPGLVKPSETLSLTCAVSGYSISDDHAWSWVRQPPGEGLEWIGYISYSGITNYNPSLKGRVTISRDNSKNTLYLQMNSLRAEDTAVYYCARVLARITAMDYWGEGTLVTVSS", "VL": "DIQMTQSPSSLSASVGDSVTITCQASQDISSYLNWYQQKPGKAPELLIYYGSELHSGVPSRFSGSGSGTDFTFTISSLEAEDAATYYCGQGNRLPYTFGQGTKVEIE"}, "B7": {"name": "F2H/L39-IgG1 (antibody, V domains shown)", "VH": "QVQLQESGPGLVKPSETLSLTCAVSGYSISDDHAWSWVRQPPGEGLEWIGYISYSGITNYNPSLQDRVTISRDNSKNTLYLQMNSLRAEDTAVYYCARLLARATAMDYWGQGILVTVSS", "VL": "DIQMTQSPSSLSASVGDSVTITCQASEDISSYLNWYQQKPGKAPELLIYYGSELESGVPSRFSGSGSGTDFTFTISSLEAEDAATYYCGQGNRLPYTFGQGTKVEIER"}}, "key": {"[1]": {"target": "SR344 (N-terminal 1st to 344th amino acids of soluble human IL-6R) (human) (UniProt P08887)", "assay": "SPR (Biacore T100), antibody captured on Protein A/G, SR344 as analyte (0.0654, 0.131, 0.261 µg/ml per the text), 37 C"}, "[2]": {"target": "SR344 (N-terminal 1st to 344th amino acids of soluble human IL-6R) (human) (UniProt P08887)", "assay": "SPR (Biacore T100), antibody captured on Protein A/G, SR344 as analyte (0.065, 0.131, 0.261 µg/ml per the text), 37 C"}, "[3]": {"target": "SR344 (N-terminal 1st to 344th amino acids of soluble human IL-6R) (human) (UniProt P08887)", "assay": "SPR (Biacore T100), antibody captured on Protein A, soluble human IL-6 receptor as analyte"}, "[4]": {"target": "SR344 (N-terminal 1st to 344th amino acids of soluble human IL-6R) (human) (UniProt P08887)", "assay": "SPR (Biacore T100), Protein A/G capture, SR344 as analyte, 37 C"}}, "note": "Results are given in words; binding and its absence hold for the method and conditions named. Binding calls can cover weak binding; strength is not graded here."}
{"binder": "B1", "values": [{"measurement": "binding", "setting": "[1]", "result": "binds"}]}
{"binder": "B2", "values": [{"measurement": "binding", "setting": "[2]", "result": "binds"}]}
{"binder": "B3", "values": [{"measurement": "binding", "setting": "[3]", "result": "binds"}]}
{"binder": "B4", "values": [{"measurement": "binding", "setting": "[3]", "result": "binds"}]}
{"binder": "B5", "values": [{"measurement": "binding", "setting": "[3]", "result": "binds"}]}
{"binder": "B6", "values": [{"measurement": "binding", "setting": "[4]", "result": "binds"}]}
{"binder": "B7", "values": [{"measurement": "binding", "setting": "[4]", "result": "binds"}]}
